# Data published in PubChem BioAssay AID651784 (National Center for Advancing Translational Sciences (NCATS), 2012).
# This list was built around the results that the source calls inconclusive (neither active nor inactive); the mix of calls is not that of the screen. Where the call is inconclusive, the potency comes from a doubtful curve fit. Active and inactive are the calls of the source. Calls come from the whole dose curve; as a rule, active = well fitted inhibition curve with a large enough effect; inconclusive = small, poorly fitted or top-dose-only effect; inactive = no such curve, though single readings can be large or run the other way.
# Experiment: Acumen qHTS Assay for Inhibitors of the mTORC1 Signaling Pathway in MEF (Tsc2-/-, p53-/-) Cells: Hit Validation;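 note: phospho-rpS6 Ser235/236 immunofluorescence normalized to propidium iodide cell count; nearly all actives have a fitted effect of over 65% in size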
# Conditions: Acumen imaging
# Potency is the fitted concentration of half-maximal effect.
row,Structure (SMILES),Potency
1,N#C/C(=C\c1ccc(-c2ccc(F)cc2F)o1)c1nc2ccccc2[nH]1,"inconclusive: 23.3 µM [inhibitor, single point]"
2,CCCCS(=O)(=O)c1oc(-c2ccc(F)cc2)nc1S(=O)(=O)c1ccc(C)cc1,active: 4.65 µM
3,COCCCNc1ncnc2c1cnn2-c1ccc(F)cc1,"inconclusive: 4.65 µM [inhibitor, partial curve]"
4,CC(C)c1ccc(NC(=O)C2CCCN(S(=O)(=O)c3ccc4[nH]c(=O)ccc4c3)C2)cc1 (stereo unspecified),"inconclusive: 26.1 µM [inhibitor, partial curve, poor fit]"
5,COC(=O)c1c(NC(=O)c2ccc(S(=O)(=O)N3CCCCC3)cc2)sc2c1CCN(C)C2,"inconclusive: 14.7 µM [inhibitor, single point]"
6,CCOc1ccc(N(Cc2ccccc2)C(=O)c2nc(S(C)(=O)=O)ncc2Cl)cc1,active: 2.93 µM
7,COc1ccc(OC)c(C(=O)CC2(O)C(=O)N(Cc3ccccc3C)c3ccccc32)c1 (stereo unspecified),active: 2.61 µM
8,CCOc1ccccc1NC(=O)Cn1nnc(C(=O)NCc2cccs2)c1N,"inconclusive: 0.464 µM [inhibitor, full curve]"
9,Cc1cccc(OCC(O)Cn2c(=N)n(CCN3CCCCC3)c3ccccc32)c1 (stereo unspecified),active: 5.85 µM
10,CCOC(=O)c1c(NC(=O)c2ccc(S(=O)(=O)N3CCC(C)CC3)cc2)sc2c1CCN(C)C2,"inconclusive: 23.3 µM [inhibitor, single point]"
11,COCCCNC(=O)c1cc2c(=O)oc3ccc(C)cc3c2s1,"inconclusive: 3.69 µM [inhibitor, full curve]"
12,CCOc1ccccc1NS(=O)(=O)c1ccc(-c2cnc(C3CC3)o2)cc1,active: 0.464 µM
13,CCOC(=O)c1c(C)n(-c2ccccc2)c2ccc(OC(=O)c3ccccc3)cc12,"inconclusive: 5.21 µM [inhibitor, full curve]"
14,CC1=Nc2cc(C(=O)NC3CCCC3)ccc2Sc2ccc(Cl)cc21,"inconclusive: 2.61 µM [inhibitor, full curve]"
15,NC(=O)c1ccccc1NC(=O)c1ccc(-c2ccc(Br)cc2)o1,"inconclusive: 14.7 µM [inhibitor, single point]"
16,Cc1cc(Cl)ccc1NC(=O)CN1C(=O)C(=O)c2ccccc21,"inconclusive: 2.93 µM [inhibitor, full curve, poor fit]"
17,CCc1ccc(C(=O)c2cnc3ccc(F)cc3c2S(=O)(=O)c2ccccc2)cc1,"inconclusive: 13.1 µM [inhibitor, single point]"
18,COc1ccc(Cn2c(C(=O)O)c(CNCc3ccccc3F)c3ccc(OC)cc32)cc1,"inconclusive: 14.7 µM [inhibitor, single point]"

row,Structure (SMILES),Potency
1,C=C(C)CSc1nc(-c2ccccc2)cc(-c2ccc(OC)cc2)c1C#N,"inconclusive: 23.3 µM [inhibitor, single point]"
2,Cc1ccc(C(=O)CC2(O)C(=O)N(Cc3ccccc3)c3ccc(Br)cc32)cc1 (stereo unspecified),active: 11.7 µM
3,CCCCCCCCCCCCCCC[C@H](O)[C@@H](N)CO,"inconclusive: 20.5 µM [inhibitor, single point]"
4,Cc1cccc(-n2ncc3c(Nc4c(C)cc(C)cc4C)ncnc32)c1,"inconclusive: 5.21 µM [inhibitor, full curve, poor fit]"
5,Cc1ccc(-c2nc3ccccn3c2Nc2c(C)cccc2C)o1,"inconclusive: 13.1 µM [inhibitor, single point]"
6,Cc1ccccc1NC(=O)c1c(NC(=O)C(F)(F)F)sc2c1CCCCC2,"inconclusive: 26.1 µM [inhibitor, single point]"
7,CCC1=Nc2cc(C(=O)NC3CCCC3)ccc2Sc2ccc(Br)cc21,"inconclusive: 0.0074 µM [inhibitor, full curve, poor fit]"
8,O=C(NCC1CCN(Cc2cccc(Cl)c2)CC1)Nc1ccc(F)c(Cl)c1,active: 9.27 µM
9,O=C(CSc1nc2c([nH]c3ccccc32)c(=O)n1-c1ccc(F)cc1)NC1CCCCC1,"inconclusive: 13.1 µM [inhibitor, single point]"
10,COc1ccc(Cl)cc1NC(=O)CSc1nc(-c2ccco2)cc(C(F)(F)F)n1,"inconclusive: 4.65 µM [inhibitor, full curve, poor fit]"
11,CCN(CCCNC(=O)c1cc2c(=O)n(CC)c3ccccc3c2s1)Cc1ccccc1,"inconclusive: 14.7 µM [inhibitor, single point]"
12,CCc1ccc(C(=O)CC2(O)C(=O)N(CCc3ccccc3)c3ccc(Cl)cc32)cc1 (stereo unspecified),"inconclusive: 20.7 µM [inhibitor, single point]"
13,CCn1c2ccccc2c2cc(CN3CCN(Cc4ccc(Cl)cc4)CC3)ccc21,active: 14.7 µM
14,C#CC(C)(CC)NC(=O)Cn1nnc(-c2ccc(OCc3c(F)cccc3Cl)cc2)n1 (stereo unspecified),"inconclusive: 13.1 µM [inhibitor, single point]"
15,Cc1cccc(NC(=O)c2sc3nc4c(cc3c2N)CCCCCC4)c1C,"inconclusive: 0.927 µM [inhibitor, full curve]"
16,Cc1c(C(=O)OC2CCC(C)CC2)[nH]c2c1C(=O)CC(c1ccc(F)cc1)C2 (stereo unspecified),active: 1.04 µM
17,CC1CCCCN1c1nnc(NC(=O)Nc2ccccc2F)s1 (stereo unspecified),"inconclusive: 18.5 µM [inhibitor, single point]"
18,CC1=Nc2cc(C(=O)NC(C)C)ccc2Sc2ccc(C)cc21,"inconclusive: 4.65 µM [inhibitor, full curve, poor fit]"

# As entered above:
# CCn1c2ccccc2c2cc(CN3CCN(Cc4ccc(Cl)cc4)CC3)ccc21 – Potency: active: 14.7 µM
# O=C(CSc1nc2c([nH]c3ccccc32)c(=O)n1-c1ccc(F)cc1)NC1CCCCC1 – Potency: inconclusive: 13.1 µM [inhibitor, single point]
